From patent publication US20210346476A1, “Modified FVIII Apitope Peptides” (APITOPE INTERNATIONAL NV, priority 2012, published 2021)
At least one peptide structure holds a part that was inferred or is arguable (an end, a ring closure or a residue). No end group written: not given here.

Legend:
[1] = system: DR2-positive antigen presenting cells (MGAR cell line) and FVIII-specific T cell hybridoma; assay: Antigen presentation assay with fresh and fixed antigen presenting cells, IL-2 ELISA; format: cell-based, mice; settings: 10 ug/ml peptide, fresh or fixed MGAR cells, 48 hours, FIG. 3
[2] = system: T cell responses to parent peptides (PRCLT, DNIMV); assay: Ex vivo T cell tolerance (Example 4): peptide treatment, priming with parent peptides, in vitro recall; set-up: species or system HLA-DR2 transgenic mice; settings: male mice, 3x100 μg peptide vs PBS, primed with parent peptides in CFA; for T cell responses to DNIMV: recall with DNIMV, FIG. 5; for T cell responses to PRCLT: recall with PRCLT, FIG. 4
[3] = system: T cell responses to PRCLT, DNIMV or FVIII; assay: Ex vivo T cell tolerance (Example 5): recall with PRCLT, DNIMV or recombinant FVIII; format: in vivo, HLA-DR2 transgenic mice; settings: female mice, 3x100 μg peptide, draining lymph nodes, FIG. 6

Row | Sequence | presentation by fixed antigen presenting cells (apitope) [1] | T cell responses to DNIMV [2] | T cell responses to PRCLT [2] | also measured
1 | DNIMVTFRNQASRPY [DNIMV, DNIMVTFRNQASRPY] | apitopes | – | – | –
2 | KKGDNIMVTFRNQASRPYGKE [SEQ ID No. 18] | – | reduces T cell responses to DNIMV | – | –
3 | KKGDNIMVTFRNQASRPYGKK [SEQ ID No. 17] | – | reduces T cell responses to DNIMV | – | T cell response to DNIMV ([3]; recall with DNIMV): significantly (p<0.02) reduced
4 | KKGPRCLTRYYSSFVNMEGKE [SEQ ID No. 2] | – | – | reduces T cell responses to PRCLT | –
5 | KKGPRCLTRYYSSFVNMEGKK [SEQ ID No. 1] | – | – | reduces T cell responses to PRCLT | T cell response to the PRCLT peptide ([3]; recall with PRCLT): significantly (p<0.01) reduced
6 | PRCLTRYYSSFVNME [PRCLT, PRCLTRYYSSFVNME] | apitopes | – | – | –
